Numbering of substitutions follows the chain as printed. Results are given in words; binding and its absence hold for the method and conditions named. Binding seen in cells or lysates may run through a third protein. A yes stands for co-enrichment or nearness to the bait. Other partners may have been found. Where a sequence is shown, tags or fusion partners need not be part of it.
Experiments:
[1] = biological target: T1, C9ORF78 with C-terminal 3xFlag-His6-Biotin-His6 tag (human) (UniProt Q9NZ63); assay: affinity purification with mass spectrometry; Flag-IP (Flag M2 affinity gel) from 500 ug nuclear extract of Flp-In T-REx 293 stable cells, IP buffer 150 mM NaCl with benzonase, eluted with 3xFlag peptide; label-free LC-MS against control IP of unmodified cells
T1 sequence: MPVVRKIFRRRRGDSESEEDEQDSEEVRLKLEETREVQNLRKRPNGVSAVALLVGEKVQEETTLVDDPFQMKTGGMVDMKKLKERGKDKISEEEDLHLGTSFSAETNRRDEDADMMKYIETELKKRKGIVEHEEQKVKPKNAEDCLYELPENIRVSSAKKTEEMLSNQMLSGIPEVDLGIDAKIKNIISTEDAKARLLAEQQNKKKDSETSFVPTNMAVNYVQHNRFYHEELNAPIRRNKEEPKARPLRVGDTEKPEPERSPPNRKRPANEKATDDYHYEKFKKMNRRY

[2] = biological target: T2, C9ORF78^R41A with C-terminal 3xFlag-His6-Biotin-His6 tag (human) (UniProt Q9NZ63); assay: as above
T2 sequence: T1 sequence with R41A

B1: SNRNP40 (protein, UniProt Q96DI7 1-357)
chain: MIEQQKRKGPELPLVPVKRQRHELLLGAGSGPGAGQQQATPGALLQAGPPRCSSLQAPIMLLSGHEGEVYCCKFHPNGSTLASAGFDRLILLWNVYGDCDNYATLKGHSGAVMELHYNTDGSMLFSASTDKTVAVWDSETGERVKRLKGHTSFVNSCYPARRGPQLVCTGSDDGTVKLWDIRKKAAIQTFQNTYQVLAVTFNDTSDQIISGGIDNDIKVWDLRQNKLTYTMRGHADSVTGLSLSSEGSYLLSNAMDNTVRVWDVRPFAPKERCVKIFQGNVHNFEKNLLRCSWSPDGSKIAAGSADRFVYVWDTTSRRILYKLPGHAGSINEVAFHPDEPIIISASSDKRLYMGEIQ
For B1, the binding [1] was “binds”.

B2: PRPF6 (protein, UniProt O94906 1-941)
chain: MNKKKKPFLGMPAPLGYVPGLGRGATGFTTRSDIGPARDANDPVDDRHAPPGKRTVGDQMKKNQAADDDDEDLNDTNYDEFNGYAGSLFSSGPYEKDDEEADAIYAALDKRMDERRKERREQREKEEIEKYRMERPKIQQQFSDLKRKLAEVTEEEWLSIPEVGDARNKRQRNPRYEKLTPVPDSFFAKHLQTGENHTSVDPRQTQFGGLNTPYPGGLNTPYPGGMTPGLMTPGTGELDMRKIGQARNTLMDMRLSQVSDSVSGQTVVDPKGYLTDLNSMIPTHGGDINDIKKARLLLKSVRETNPHHPPAWIASARLEEVTGKLQVARNLIMKGTEMCPKSEDVWLEAARLQPGDTAKAVVAQAVRHLPQSVRIYIRAAELETDIRAKKRVLRKALEHVPNSVRLWKAAVELEEPEDARIMLSRAVECCPTSVELWLALARLETYENARKVLNKARENIPTDRHIWITAAKLEEANGNTQMVEKIIDRAITSLRANGVEINREQWIQDAEECDRAGSVATCQAVMRAVIGIGIEEEDRKHTWMEDADSCVAHNALECARAIYAYALQVFPSKKSVWLRAAYFEKNHGTRESLEALLQRAVAHCPKAEVLWLMGAKSKWLAGDVPAARSILALAFQANPNSEEIWLAAVKLESENDEYERARRLLAKARSSAPTARVFMKSVKLEWVQDNIRAAQDLCEEALRHYEDFPKLWMMKGQIEEQKEMMEKAREAYNQGLKKCPHSTPLWLLLSRLEEKIGQLTRARAILEKSRLKNPKNPGLWLESVRLEYRAGLKNIANTLMAKALQECPNSGILWSEAIFLEARPQRRTKSVDALKKCEHDPHVLLAVAKLFWSQRKITKAREWFHRTVKIDSDLGDAWAFFYKFELQHGTEEQQEEVRKRCESAEPRHGELWCAVSKDIANWQKKIGDILRLVAGRIKNTF
For B2, the binding [1] was “binds”.

B3: SYF1 (protein, UniProt Q9HCS7 1-855)
chain: MVVMARLSRPERPDLVFEEEDLPYEEEIMRNQFSVKCWLRYIEFKQGAPKPRLNQLYERALKLLPCSYKLWYRYLKARRAQVKHRCVTDPAYEDVNNCHERAFVFMHKMPRLWLDYCQFLMDQGRVTHTRRTFDRALRALPITQHSRIWPLYLRFLRSHPLPETAVRGYRRFLKLSPESAEEYIEYLKSSDRLDEAAQRLATVVNDERFVSKAGKSNYQLWHELCDLISQNPDKVQSLNVDAIIRGGLTRFTDQLGKLWCSLADYYIRSGHFEKARDVYEEAIRTVMTVRDFTQVFDSYAQFEESMIAAKMETASELGREEEDDVDLELRLARFEQLISRRPLLLNSVLLRQNPHHVHEWHKRVALHQGRPREIINTYTEAVQTVDPFKATGKPHTLWVAFAKFYEDNGQLDDARVILEKATKVNFKQVDDLASVWCQCGELELRHENYDEALRLLRKATALPARRAEYFDGSEPVQNRVYKSLKVWSMLADLEESLGTFQSTKAVYDRILDLRIATPQIVINYAMFLEEHKYFEESFKAYERGISLFKWPNVSDIWSTYLTKFIARYGGRKLERARDLFEQALDGCPPKYAKTLYLLYAQLEEEWGLARHAMAVYERATRAVEPAQQYDMFNIYIKRAAEIYGVTHTRGIYQKAIEVLSDEHAREMCLRFADMECKLGEIDRARAIYSFCSQICDPRTTGAFWQTWKDFEVRHGNEDTIKEMLRIRRSVQATYNTQVNFMASQMLKVSGSATGTVSDLAPGQSGMDDMKLLEQRAEQLAAEAERDQPLRAQSKILFVRSDASREELAELAQQVNPEEIQLGEDEDEDEMDLEPNEVRLEQQSVPAAVFGSLKED
B3 was tested, and the binding [1] was “binds”.

B4: CWC27 (protein, UniProt Q6UX04 1-472)
chain: MSNIYIQEPPTNGKVLLKTTAGDIDIELWSKEAPKACRNFIQLCLEAYYDNTIFHRVVPGFIVQGGDPTGTGSGGESIYGAPFKDEFHSRLRFNRRGLVAMANAGSHDNGSQFFFTLGRADELNNKHTIFGKVTGDTVYNMLRLSEVDIDDDERPHNPHKIKSCEVLFNPFDDIIPREIKRLKKEKPEEEVKKLKPKGTKNFSLLSFGEEAEEEEEEVNRVSQSMKGKSKSSHDLLKDDPHLSSVPVVESEKGDAPDLVDDGEDESAEHDEYIDGDEKNLMRERIAKKLKKDTSANVKSAGEGEVEKKSVSRSEELRKEARQLKRELLAAKQKKVENAAKQAEKRSEEEEAPPDGAVAEYRREKQKYEALRKQQSKKGTSREDQTLALLNQFKSKLTQAIAETPENDIPETEVEDDEGWMSHVLQFEDKSRKVKDASMQDSDTFEIYDPRNPVNKRRREESKKLMREKKERR
For B4, the binding [1] was “binds”.

B5: CWC22 (protein, UniProt Q9HCG8 1-908)
chain: MKSSVAQIKPSSGHDRRENLNSYQRNSSPEDRYEEQERSPRDRDYFDYSRSDYEHSRRGRSYDSSMESRNRDREKRRERERDTDRKRSRKSPSPGRRNPETSVTQSSSAQDEPATKKKKDELDPLLTRTGGAYIPPAKLRMMQEQITDKNSLAYQRMSWEALKKSINGLINKVNISNISIIIQELLQENIVRGRGLLSRSVLQAQSASPIFTHVYAALVAIINSKFPQIGELILKRLILNFRKGYRRNDKQLCLTASKFVAHLINQNVAHEVLCLEMLTLLLERPTDDSVEVAIGFLKECGLKLTQVSPRGINAIFERLRNILHESEIDKRVQYMIEVMFAVRKDGFKDHPIILEGLDLVEEDDQFTHMLPLEDDYNPEDVLNVFKMDPNFMENEEKYKAIKKEILDEGDTDSNTDQDAGSSEEDEEEEEEEGEEDEEGQKVTIHDKTEINLVSFRRTIYLAIQSSLDFEECAHKLLKMEFPESQTKELCNMILDCCAQQRTYEKFFGLLAGRFCMLKKEYMESFEGIFKEQYDTIHRLETNKLRNVAKMFAHLLYTDSLPWSVLECIKLSEETTTSSSRIFVKIFFQELCEYMGLPKLNARLKDETLQPFFEGLLPRDNPRNTRFAINFFTSIGLGGLTDELREHLKNTPKVIVAQKPDVEQNKSSPSSSSSASSSSESDSSDSDSDSSDSSSESSSEESDSSSISSHSSASANDVRKKGHGKTRSKEVDKLIRNQQTNDRKQKERRQEHGHQETRTERERRSEKHRDQNSSGSNWRDPITKYTSDKDVPSERNNYSRVANDRDQEMHIDLENKHGDPKKKRGERRNSFSENEKHTHRIKDSENFRRKDRSKSKEMNRKHSGSRSDEDRYQNGAERRWEKSSRYSEQSRESKKNQDRRREKSPAKQK
With B5 the binding [1] was “binds”.

B6: GPKOW (protein, UniProt Q92917 1-476)
chain: MADSKEGVLPLTAASTAPISFGFTRTSARRRLADSGDGAGPSPEEKDFLKTVEGRELQSVKPQEAPKELVIPLIQNGHRRQPPARPPGPSTDTGALADGVVSQAVKELIAESKKSLEERENAGVDPTLAIPMIQKGCTPSGEGADSEPRAETVPEEANYEAVPVEAYGLAMLRGMGWKPGEGIGRTFNQVVKPRVNSLRPKGLGLGANLTEAQALTPTGPSRMPRPDEEQEKDKEDQPQGLVPGGAVVVLSGPHRGLYGKVEGLDPDNVRAMVRLAVGSRVVTVSEYYLRPVSQQEFDKNTLDLRQQNGTASSRKTLWNQELYIQQDNSERKRKHLPDRQDGPAAKSEKAAPRSQHWLHRDLRVRFVDNMYKGGQYYNTKMIIEDVLSPDTCVCRTDEGRVLEGLREDMLETLVPKAEGDRVMVVLGPQTGRVGHLLSRDRARSRALVQLPRENQVVELHYDAICQYMGPSDTDDD
For B6, the binding [1] was “binds”.

B7: DHX35 (protein, UniProt Q9H5Z1 1-703)
chain: MAAPVGPVKFWRPGTEGPGVSISEERQSLAENSGTTVVYNPYAALSIEQQRQKLPVFKLRNHILYLIENYQTVVIVGETGCGKSTQIPQYLAEAGWTAEGRVVGVTQPRRVAAVTVAGRVAEERGAVLGHEVGYCIRFDDCTDQLATRIKFLTDGMLVREMMVDPLLTKYSVIMLDEAHERTLYTDIAIGLLKKIQKKRGDLRLIVASATLDADKFRDFFNQNETSDPARDTCVILTVEGRTFPVDIFYLQSPVPDYIKSTVETVVKIHQTEGDGDVLAFLTGQEEVETVVSMLIEQARALARTGMKRHLRVLPMYAGLPSFEQMKVFERVSRSVRKVIVATNVAETSITISGIVYVIDCGFVKLRAYNPRTAIECLVVVPVSQASANQRAGRGGRSRSGKCYRLYTEEAFDKLPQSTVPEMQRSNLAPVILQLKALGIDNVLRFHFMSPPPAQSMVQALELLYALGGLDKDCRLTEPLGMRIAEFPLNPMFAKMLLESGNFGCSQEILSIAAMMQIQNIFVVPPNQKSHAIRVHRKFAVEEGDHLTMLNIYEAFIKHNKDSKWCQEHFLNYKGLVRAATVREQLKKLLVKFQVPRKSSEGDPDLVLRCIVSGFFANAARFHSTGAYRTIRDDHELHIHPASVLYAEKPPRWVIYNEVIQTSKYYMRDVTAIESAWLLELAPHFYQQGTHLSLKAKRAKVQDP
With B7 the binding [1] was “binds”.

B8: PRPF38A (protein, UniProt Q8NAV1 1-312)
chain: MANRTVKDAHSIHGTNPQYLVEKIIRTRIYESKYWKEECFGLTAELVVDKAMELRFVGGVYGGNIKPTPFLCLTLKMLQIQPEKDIIVEFIKNEDFKYVRMLGALYMRLTGTAIDCYKYLEPLYNDYRKIKSQNRNGEFELMHVDEFIDELLHSERVCDIILPRLQKRYVLEEAEQLEPRVSALEEDMDDVESSEEEEEEDEKLERVPSPDHRRRSYRDLDKPRRSPTLRYRRSRSRSPRRRSRSPKRRSPSPRRERHRSKSPRRHRSRSRDRRHRSRSKSPGHHRSHRHRSHSKSPERSKKSHKKSRRGNE
In the case of B8, the binding [2] is reported as “binds”.

From publication PMC8894380
